Source: PubChem BioAssay AID1224830 (NIAID, 2016)

Assay: 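Regulators of TLR4 signalling towards TNF-alpha in macrophage-like cells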 (primary screen)
Cell system: human THP-1 monocytic leukaemia cells, TNF dual-luciferase reporter clone, PMA-differentiated to macrophage-like cells
Reagents: siRNA pool against human genes, 50 nM
Time to read-out: LPS for 4 h, given about 3 days after siRNA transfection
Challenge: bacterial LPS (TLR4 ligand), 10 ng/ml
Read-out: 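Ratio of firefly to renilla light, scaled to the plate median and expressed as a robust z-score per replicate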
Scale: TNF reporter robust z-score: higher = stronger TNF reporter response to LPS
Call rule: 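a well is active when its z-score exceeds 2.8 or falls below -1.5; control wells carry no call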
The whole screen tested about 18,000 reagents; this is a random part of them. Over the whole deposit, about 2,900 (16%) were called active. 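Calls are made per well; low scores hint the gene aids the LPS response, high scores that it dampens it.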 The numbers tell different reagents against one gene apart. Repeated entries: four replicate wells of each siRNA pool. No sequences are given here.

Knock-down of UBA2 (ubiquitin like modifier activating enzyme 2) gave: TNF reporter robust z-score -0.64; inactive.
For UBA2 (ubiquitin like modifier activating enzyme 2) the deposit lists TNF reporter robust z-score 1.22; inactive.
Depletion of UBA2 (ubiquitin like modifier activating enzyme 2) came out at: TNF reporter robust z-score 0.16; inactive.
Against UBA2 (ubiquitin like modifier activating enzyme 2), the values are TNF reporter robust z-score 1.03; inactive.
After knock-down of OR8J1 (olfactory receptor family 8 subfamily J member 1), the record shows TNF reporter robust z-score -0.97; inactive.
After knock-down of OR8J1 (olfactory receptor family 8 subfamily J member 1), the screen gave TNF reporter robust z-score -0.67; inactive.
Knock-down of OR8J1 (olfactory receptor family 8 subfamily J member 1) resulted in: TNF reporter robust z-score 0.23; inactive.
OR8J1 (olfactory receptor family 8 subfamily J member 1) scored TNF reporter robust z-score 0.24; inactive.
After knock-down of AEN (apoptosis enhancing nuclease), the record shows TNF reporter robust z-score -0.68; inactive.
After knock-down of AEN (apoptosis enhancing nuclease) the results were TNF reporter robust z-score -0.66; inactive.
AEN (apoptosis enhancing nuclease) showed TNF reporter robust z-score -0.49; inactive.
After knock-down of AEN (apoptosis enhancing nuclease), the record shows TNF reporter robust z-score -0.32; inactive.
For IQCJ (IQ motif containing J) the deposit lists TNF reporter robust z-score -1.22; inactive.
After knock-down of IQCJ (IQ motif containing J), the record shows TNF reporter robust z-score -1.18; inactive.
Against IQCJ (IQ motif containing J), the entry reads TNF reporter robust z-score 0.82; inactive.
For IQCJ (IQ motif containing J), the entry reads TNF reporter robust z-score -0.71; inactive.

5 entries from above, ordered by “TNF reporter robust z-score”, high to low.
OR8J1 (olfactory receptor family 8 subfamily J member 1) → TNF reporter robust z-score = 0.24; Outcome = inactive
OR8J1 (olfactory receptor family 8 subfamily J member 1) → TNF reporter robust z-score = 0.23; Outcome = inactive
OR8J1 (olfactory receptor family 8 subfamily J member 1) → TNF reporter robust z-score = -0.67; Outcome = inactive
AEN (apoptosis enhancing nuclease) → TNF reporter robust z-score = -0.68; Outcome = inactive
OR8J1 (olfactory receptor family 8 subfamily J member 1) → TNF reporter robust z-score = -0.97; Outcome = inactive

Continued.
For ZGRF1 (zinc finger GRF-type containing 1) #1, the entry reads TNF reporter robust z-score 0.45; inactive.
Against ZGRF1 (zinc finger GRF-type containing 1) #1, the values are TNF reporter robust z-score 1.34; inactive.
With knock-down of ZGRF1 (zinc finger GRF-type containing 1) #1 the results were TNF reporter robust z-score -0.41; inactive.
Knock-down of ZGRF1 (zinc finger GRF-type containing 1) #1 resulted in: TNF reporter robust z-score 0.68; inactive.
ZGRF1 (zinc finger GRF-type containing 1) #2 gave TNF reporter robust z-score -0.36; inactive.
Depletion of ZGRF1 (zinc finger GRF-type containing 1) #2 came out at: TNF reporter robust z-score -0.89; inactive.
Depletion of ZGRF1 (zinc finger GRF-type containing 1) #2 resulted in: TNF reporter robust z-score -0.76; inactive.
Knock-down of ZGRF1 (zinc finger GRF-type containing 1) #2 gave: TNF reporter robust z-score -0.82; inactive.
Silencing of ATP5PD (ATP synthase peripheral stalk subunit d) gave: TNF reporter robust z-score 0.05; inactive.
For ATP5PD (ATP synthase peripheral stalk subunit d), the entry reads TNF reporter robust z-score 0.91; inactive.
Depletion of ATP5PD (ATP synthase peripheral stalk subunit d) came out at: TNF reporter robust z-score -0.62; inactive.
Silencing of ATP5PD (ATP synthase peripheral stalk subunit d) gave: TNF reporter robust z-score 0.22; inactive.
With knock-down of ZNF32 (zinc finger protein 32), the record shows TNF reporter robust z-score 1.3; inactive.
Knock-down of ZNF32 (zinc finger protein 32) resulted in: TNF reporter robust z-score 0.29; inactive.
ZNF32 (zinc finger protein 32) gave TNF reporter robust z-score 6.48; active.
For ZNF32 (zinc finger protein 32) the deposit lists TNF reporter robust z-score 1.31; inactive.
With knock-down of ZNF507 (zinc finger protein 507), the record shows TNF reporter robust z-score -1.05; inactive.
Silencing of ZNF507 (zinc finger protein 507) came out at: TNF reporter robust z-score 0.86; inactive.
For ZNF507 (zinc finger protein 507), the values are TNF reporter robust z-score 0.48; inactive.
After knock-down of ZNF507 (zinc finger protein 507), the screen gave TNF reporter robust z-score -0.8; inactive.
After knock-down of LHX8 (LIM homeobox 8), the screen gave TNF reporter robust z-score 0.88; inactive.
After knock-down of LHX8 (LIM homeobox 8), the record shows TNF reporter robust z-score -0.47; inactive.
With knock-down of LHX8 (LIM homeobox 8) the results were TNF reporter robust z-score -0.11; inactive.
With knock-down of LHX8 (LIM homeobox 8), the screen gave TNF reporter robust z-score -0.52; inactive.
Silencing of SPNS3 resulted in: TNF reporter robust z-score -1.28; inactive.
Depletion of SPNS3 came out at: TNF reporter robust z-score -1.21; inactive.
Knock-down of SPNS3 came out at: TNF reporter robust z-score -1.25; inactive.
SPNS3 scored TNF reporter robust z-score -1.04; inactive.
Against CCL4 (C-C motif chemokine ligand 4), the values are TNF reporter robust z-score 0.49; inactive.
Against CCL4 (C-C motif chemokine ligand 4), the entry reads TNF reporter robust z-score 0.22; inactive.
With knock-down of CCL4 (C-C motif chemokine ligand 4), the screen gave TNF reporter robust z-score -0.43; inactive.
CCL4 (C-C motif chemokine ligand 4) scored TNF reporter robust z-score -0.46; inactive.
